Assay results taken from publication PMC9722916.
Results are given in words; binding and its absence hold for the method and conditions named. Some entries that bind do so weakly or less than the wild type. Where a sequence is shown, tags or fusion partners need not be part of it.

Biological target: T1, rat TRPV2, C-terminally fused to GFP and a His8-tag (rat), Q9WUD2
T1 chain: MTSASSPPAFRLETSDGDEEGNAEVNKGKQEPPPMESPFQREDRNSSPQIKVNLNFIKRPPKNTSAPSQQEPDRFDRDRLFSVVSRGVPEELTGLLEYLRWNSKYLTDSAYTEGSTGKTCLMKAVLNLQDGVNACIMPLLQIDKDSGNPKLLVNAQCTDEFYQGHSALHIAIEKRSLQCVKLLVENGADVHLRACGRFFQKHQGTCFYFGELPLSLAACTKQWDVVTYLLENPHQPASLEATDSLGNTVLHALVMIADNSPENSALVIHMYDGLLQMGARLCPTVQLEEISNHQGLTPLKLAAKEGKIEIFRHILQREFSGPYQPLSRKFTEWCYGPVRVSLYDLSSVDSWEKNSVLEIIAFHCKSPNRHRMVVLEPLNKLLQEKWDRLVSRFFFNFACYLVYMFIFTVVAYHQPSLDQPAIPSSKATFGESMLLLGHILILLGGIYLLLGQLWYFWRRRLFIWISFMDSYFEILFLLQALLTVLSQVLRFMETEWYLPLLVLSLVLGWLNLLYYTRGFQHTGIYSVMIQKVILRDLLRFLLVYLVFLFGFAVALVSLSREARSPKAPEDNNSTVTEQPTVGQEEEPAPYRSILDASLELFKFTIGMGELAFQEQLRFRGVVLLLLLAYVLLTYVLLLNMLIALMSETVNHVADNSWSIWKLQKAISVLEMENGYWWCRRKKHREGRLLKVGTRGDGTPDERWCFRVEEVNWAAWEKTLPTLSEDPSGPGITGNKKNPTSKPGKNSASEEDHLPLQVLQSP
Assay: cryo-EM structure; purified rat TRPV2 in GDN (20 mM Tris 8.0, 150 mM NaCl, 0.4 mg/ml GDN), incubated with C16 (50 uM) and probenecid (2 mM), alone or in combination, at room temperature for 15 min; C4 symmetry (C16 and probenecid structures), C1 symmetry (C16+probenecid structures); both purified
Conditions: remark: other sources report otherwise

B1: rat TRPV2, C-terminally fused to GFP and a His8-tag, Q9WUD2 1-761 (natural protein)
chain: T1 chain
  binding: binds
